The list is a part of this screen's results and no random one: it is rich in T/C values a quarter to a half above the control, in often repeated tests (any T/C) and in doses without a T/C. Further doses and runs are listed elsewhere. T/C: endpoint of the treated group in % of that of the vehicle group. Some entries give survivors of the animals treated and no T/C: the source holds a T/C of zero for them, seemingly a mark for toxic or unscored doses. Some doses without a T/C left all or most animals alive at the check, yet need not have been tolerated: survival well below the control is almost never listed, so the zero probably covers shortened survival too. Survivors were counted at the toxicity check, usually on the fifth day, unless a day is given; later deaths do not show. Schedule codes are those of the source, read here as Q, the interval in days (D) or hours (H), X, the number of doses. Some entries were tested several times; the values are given in rising order. For survival time, the PubChem record calls one and a half times the control and up active, and a quarter to a half above the control has no call in these data; cut-offs in other NCI protocols can differ. Some T/C values are followed by the survivors on the day toxicity was checked, most often the fifth; where none is given, no animal had died by that day. Starred links: 1 amine or outer side, 2 acyl side, 3 side chain; linkers in the order of their positions; H or OH if unused. Positions of bridges follow the written chain, without caps; N, C: chain ends. Non-standard residues stand in square brackets, D forms with d. Residues, ends and D or L forms follow the SMILES beside them. Chains are numbered I, II in the order given. Actinocin(9to1) = Cc1c2oc3c(C)ccc(C(=O)[*:1])c3nc-2c(C(=O)[*:2])c(N)c1=O; NMeV = CN[CH](C(=O)O)C(C)C; Sar = CNCC(=O)O
System: BDF1 mice, P388 leukemia ip, median survival T/C
Experiment: NCI In Vivo Anticancer Drug Screen. Data for tumor model P388 Leukemia (intraperitoneal) in B6D2F1 (BDF1) mice
Settings: T/C endpoint: median survival time, higher T/C = longer survival
Method in brief: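 In tumour-bearing mice, survival after compound treatment is set against the vehicle group and given as a quotient.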

[1] = dose: 50.0 mg/kg/injection, schedule: Q01DX009 (ip), vehicle: water
[2] = dose: 100.0 mg/kg/injection, schedule: Q01DX009 (ip), vehicle: water
[3] = dose: 100.0 mg/kg/injection, schedule: Q01DX009 (ip), vehicle: saline
[4] = dose: 300.0 mg/kg/injection, schedule: Q01DX009 (ip), vehicle: saline with Tween-80
[5] = dose: 400.0 mg/kg/injection, schedule: Q01DX009 (ip), vehicle: saline with Tween-80
[6] = dose: 100.0 mg/kg/injection, schedule: Q01DX009 (ip), vehicle: saline with Tween-80
[7] = dose: 200.0 mg/kg/injection, schedule: Q01DX009 (ip), vehicle: saline with Tween-80
[8] = dose: 200.0 mg/kg/injection, schedule: Q04DX003 (ip), vehicle: saline
[9] = dose: 400.0 mg/kg/injection, schedule: Q01DX009 (ip), vehicle: saline
[10] = dose: 400.0 mg/kg/injection, schedule: Q04DX003 (ip), vehicle: saline
[11] = dose: 400.0 mg/kg/injection, schedule: Q04DX003 (ip), vehicle: saline with Tween-80
[12] = dose: 200.0 mg/kg/injection, schedule: Q01DX009 (ip), vehicle: saline
[13] = dose: 400.0 mg/kg/injection, schedule: Q04DX003 (ip), vehicle: Klucel (hydroxypropylcellulose) (HPC)
[14] = dose: 50.0 mg/kg/injection, schedule: Q01DX009 (ip), vehicle: saline with Tween-80
[15] = dose: 12.5 mg/kg/injection, schedule: Q01DX009 (ip), vehicle: saline with Tween-80

OCCN(CCO)c1cc(OCc2ccccc2)cc(OCc2ccccc2)c1
survivor count [1]: 6 of 6 | survivor count [2]: 6 of 6 | survivor count (dose: 200.0 mg/kg/injection, schedule: Q01DX009 (ip), vehicle: water): 6 of 6 | survivor count (dose: 400.0 mg/kg/injection, schedule: Q01DX009 (ip), vehicle: water): 6 of 6

CCn1c(O)c(C=N)c(=O)n(CC)c1=O
survivor count [3]: 5 of 6

O=C(NC(Cc1nn[nH]n1)C(=O)OCc1ccccc1)OCc1ccccc1 (centres undefined)
survivor count [4]: 4 of 6 | T/C [5]: 125 % of control | survivor count [5]: 5 of 6 | survivor count (dose: 500.0 mg/kg/injection, schedule: Q01DX009 (ip), vehicle: saline with Tween-80): 5 of 6 | survivor count (dose: 600.0 mg/kg/injection, schedule: Q01DX009 (ip), vehicle: saline with Tween-80): 3 of 6

COC(CN1C(=O)CSC1=S)OC
T/C [6]: 126 and 134 % of control | T/C [7]: 126 % of control

O=C(CSc1cc(-c2ccc(Cl)cc2)s[s+]1)c1ccc(Cl)cc1
T/C [8]: 126 % of control [5 of 6 alive] | survivor count [9]: 6 of 6 | survivor count [10]: 3 of 6 and 5 of 6

NC(=O)CNC1=C(N2CC2)C(=O)C(NCC(N)=O)=C(N2CC2)C1=O
T/C (dose: 0.5 mg/kg/injection, schedule: Q01DX009 (ip), vehicle: saline): 140 % of control | T/C (dose: 1.0 mg/kg/injection, schedule: Q01DX009 (ip), vehicle: saline): 138 % of control

CC1(c2cccs2)NC(=O)NC1=O (centres undefined)
T/C [5]: 129 % of control

O=C1NC(c2ccccc2)(c2ccccc2)C(=O)N1CCN(CCCl)CCCl
T/C (dose: 9.2 mg/kg/injection, schedule: Q04DX003 (ip), vehicle: saline with Tween-80): 125 % of control | T/C (dose: 50.0 mg/kg/injection, schedule: Q04DX003 (ip), vehicle: saline with Tween-80): 127 % of control | survivor count (dose: 100.0 mg/kg/injection, schedule: Q04DX003 (ip), vehicle: saline with Tween-80): 7 of 7 | survivor count (dose: 200.0 mg/kg/injection, schedule: Q04DX003 (ip), vehicle: saline with Tween-80): 7 of 7 | survivor count [11]: 4 of 7

CCCCCCCCCCCCO[P+](=O)OCCCCCCCCCCCC
survivor count (dose: 100.0 mg/kg/injection, schedule: Q04DX003 (ip), vehicle: saline sonified): 4 of 6 | T/C (dose: 132.0 mg/kg/injection, schedule: Q01DX009 (ip), vehicle: saline with Tween-80): 125 % of control [5 of 6 alive] | T/C [7]: 125 % of control | survivor count [4]: 5 of 6

O=C1c2ccccc2C(=O)c2c(Sc3ccccc3)cccc21
survivor count [6]: 6 of 6 | survivor count [5]: 6 of 6

OCCNCCNCC[OH2+].OCCNCCNCC[OH2+].[Cu+2].[O-][Cl+3]([O-])([O-])[O-]
survivor count (dose: 50.0 mg/kg/injection, schedule: Q01DX009 (ip), vehicle: other): 0 of 6 | survivor count (dose: 100.0 mg/kg/injection, schedule: Q01DX009 (ip), vehicle: other): 1 of 6 | survivor count (dose: 200.0 mg/kg/injection, schedule: Q01DX009 (ip), vehicle: other): 0 of 6

O=C(CBr)N=c1cc(-c2ccc(Cl)cc2)ss1
survivor count (dose: 50.0 mg/kg/injection, schedule: Q04DX003 (ip), vehicle: saline): 6 of 6 | survivor count (dose: 100.0 mg/kg/injection, schedule: Q04DX003 (ip), vehicle: saline): 6 of 6 | survivor count [8]: 4 of 6 | survivor count [10]: 5 of 6

Cc1ccc(S(=O)(=O)N/N=C/c2ccccc2)cc1
T/C (dose: 200.0 mg/kg/injection, schedule: Q04DX003 (ip), vehicle: Klucel (hydroxypropylcellulose) (HPC)): 141 % of control

O=C(O)c1cc(-c2ccccc2)[nH]c1-c1ccccc1
survivor count [3]: 6 of 6 | survivor count [12]: 5 of 6

Cc1ccccc1-n1c(C)nc2ccccc2c1=O
survivor count (dose: 50.0 mg/kg/injection, schedule: Q01DX009 (ip), vehicle: Klucel (hydroxypropylcellulose) (HPC)): 6 of 6 | survivor count (dose: 100.0 mg/kg/injection, schedule: Q01DX009 (ip), vehicle: Klucel (hydroxypropylcellulose) (HPC)): 6 of 6 | survivor count (dose: 200.0 mg/kg/injection, schedule: Q01DX009 (ip), vehicle: Klucel (hydroxypropylcellulose) (HPC)): 1 of 6 | survivor count [13]: 1 of 6

Oc1cccc2cccnc12
survivor count [7]: 1 of 6

Nc1ncnc2c1cnn2CCCl
survivor count [11]: 3 of 6

Cc1c2oc3c(C)ccc(C(=O)NC4C(=O)NC(C(C)C)C(=O)N(C)CC(=O)N(C)CC(=O)N(C)C(C(C)C)C(=O)OC4C)c3nc-2c(C(=O)NC2C(=O)NC(C(C)C)C(=O)N(C)CC(=O)N(C)CC(=O)N(C)C(C(C)C)C(=O)OC2C)c(N)c1=O (centres undefined) (I: TV[Sar][Sar][NMeV] / II: TV[Sar][Sar][NMeV]; ester I:1-I:C, II:1-II:C; linker I:N-II:N via Actinocin(9to1); configuration not given here)
T/C (dose: 750.0 micrograms/kg/injection, schedule: Q04DX003 (ip), vehicle: saline + alcohol): 133 % of control | T/C (dose: 1000.0 micrograms/kg/injection, schedule: Q01DX009 (ip), vehicle: saline + alcohol): 125 % of control | survivor count (dose: 2000.0 micrograms/kg/injection, schedule: Q01DX009 (ip), vehicle: saline + alcohol): 8 of 8 | T/C (dose: 3000.0 micrograms/kg/injection, schedule: Q04DX003 (ip), vehicle: saline + alcohol): 133 % of control [7 of 8 alive] | survivor count (dose: 6000.0 micrograms/kg/injection, schedule: Q04DX003 (ip), vehicle: saline + alcohol): 3 of 8 and 5 of 8

O=C(O)c1cc(C(=O)O)cc(S(=O)(=O)F)c1
survivor count [5]: 1 of 6

COc1cc2c3c(c1)-c1c(ccc(OC)c1Oc1nnnn1-c1ccccc1)CC3N(C)CC2 (centres undefined)
survivor count [10]: 0 of 6

COc1cc2c(c(OC)c1OC)C(=O)/C(=C\c1ccccc1)O2
survivor count [14]: 6 of 6 | survivor count [6]: 6 of 6

O=C1NC(C2CCC3CN32)C(=O)NC1C1CCC2CN21 (centres undefined)
T/C (dose: 0.1 mg/kg/injection, schedule: Q01DX009 (ip), vehicle: saline): 128 % of control | T/C (dose: 0.2 mg/kg/injection, schedule: Q01DX009 (ip), vehicle: saline): 138 % of control | T/C (dose: 1.6 mg/kg/injection, schedule: Q01DX009 (ip), vehicle: saline): 146 % of control

NC(N)=Nc1ccc(OC(=O)c2ccc(N=C(N)N)cc2)cc1
survivor count [1]: 4 of 6 | survivor count [2]: 3 of 6

CN=C(N)c1ccc(N=C(N)c2ccc(N=C(N)c3ccc(NC(=O)Nc4ccc(NC(=O)Nc5ccc(C(N)=Nc6ccc(C(N)=Nc7ccc(C(N)=NC)cc7)cc6)cc5)cc4)cc3)cc2)cc1
T/C (dose: 0.55 mg/kg/injection, schedule: Q01DX009 (ip), vehicle: saline with Tween-80): 126 % of control | T/C (dose: 0.85 mg/kg/injection, schedule: Q01DX009 (ip), vehicle: saline with Tween-80): 126 % of control | T/C (dose: 1.3 mg/kg/injection, schedule: Q01DX009 (ip), vehicle: saline with Tween-80): 133 and 134 % of control | T/C (dose: 2.0 mg/kg/injection, schedule: Q01DX009 (ip), vehicle: saline with Tween-80): 140 % of control | T/C (dose: 3.0 mg/kg/injection, schedule: Q01DX009 (ip), vehicle: saline with Tween-80): 148 % of control | T/C [15]: 140 % of control | T/C (dose: 37.0 mg/kg/injection, schedule: Q04DX003 (ip), vehicle: saline with Tween-80): 145 % of control | survivor count [14]: 6 of 6

OCc1ccn2c1C(O)CC2 (centres undefined)
survivor count [12]: 6 of 6 | survivor count [9]: 3 of 6

CCN1C(=O)CC(=O)N(CC)C1=S
survivor count [13]: 3 of 3

O=C1OCCN1/N=C/C=N/N1CCOC1=O
survivor count [15]: 5 of 7 | survivor count (dose: 25.0 mg/kg/injection, schedule: Q01DX009 (ip), vehicle: saline with Tween-80): 7 of 7 | survivor count [14]: 7 of 7

COC(=O)C1=C(\N2CCOCC2)CCCCC/C=C\1C(=O)OC
T/C [6]: 127 % of control
